Binding data for two substances are collected here from article PMC11653647.

By UniProt entry, the sequences of proteins in these tests, tags left out.
UniProt O14744: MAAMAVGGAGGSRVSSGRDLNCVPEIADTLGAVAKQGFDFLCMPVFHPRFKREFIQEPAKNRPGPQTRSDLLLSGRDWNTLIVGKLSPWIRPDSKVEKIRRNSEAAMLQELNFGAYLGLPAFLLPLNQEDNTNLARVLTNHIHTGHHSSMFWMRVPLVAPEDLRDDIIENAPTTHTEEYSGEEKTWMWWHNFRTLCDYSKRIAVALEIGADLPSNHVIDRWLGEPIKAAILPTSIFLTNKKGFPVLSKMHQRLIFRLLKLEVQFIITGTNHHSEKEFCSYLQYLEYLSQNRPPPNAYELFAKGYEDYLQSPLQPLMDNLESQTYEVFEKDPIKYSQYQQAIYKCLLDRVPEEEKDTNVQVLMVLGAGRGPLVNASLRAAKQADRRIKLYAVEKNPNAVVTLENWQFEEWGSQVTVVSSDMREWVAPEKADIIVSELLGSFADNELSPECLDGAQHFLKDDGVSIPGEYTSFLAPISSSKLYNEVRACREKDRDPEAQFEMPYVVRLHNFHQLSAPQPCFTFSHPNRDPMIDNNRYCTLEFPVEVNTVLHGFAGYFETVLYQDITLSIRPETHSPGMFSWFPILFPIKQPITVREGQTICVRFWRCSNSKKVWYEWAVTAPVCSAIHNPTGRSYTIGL
UniProt Q9BQA1: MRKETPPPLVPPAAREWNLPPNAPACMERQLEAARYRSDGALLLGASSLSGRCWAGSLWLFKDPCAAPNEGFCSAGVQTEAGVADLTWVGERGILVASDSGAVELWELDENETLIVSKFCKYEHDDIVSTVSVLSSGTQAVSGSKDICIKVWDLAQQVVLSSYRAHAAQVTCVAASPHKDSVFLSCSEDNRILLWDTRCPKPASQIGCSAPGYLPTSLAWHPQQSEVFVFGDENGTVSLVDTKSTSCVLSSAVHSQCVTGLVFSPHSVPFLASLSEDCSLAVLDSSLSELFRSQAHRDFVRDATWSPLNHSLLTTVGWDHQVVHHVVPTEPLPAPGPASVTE

In the experiment the target is T1, C-terminal Flag-tagged TBL2 (transducin beta-like 2) (UniProt Q9Y4P3).
T1 sequence: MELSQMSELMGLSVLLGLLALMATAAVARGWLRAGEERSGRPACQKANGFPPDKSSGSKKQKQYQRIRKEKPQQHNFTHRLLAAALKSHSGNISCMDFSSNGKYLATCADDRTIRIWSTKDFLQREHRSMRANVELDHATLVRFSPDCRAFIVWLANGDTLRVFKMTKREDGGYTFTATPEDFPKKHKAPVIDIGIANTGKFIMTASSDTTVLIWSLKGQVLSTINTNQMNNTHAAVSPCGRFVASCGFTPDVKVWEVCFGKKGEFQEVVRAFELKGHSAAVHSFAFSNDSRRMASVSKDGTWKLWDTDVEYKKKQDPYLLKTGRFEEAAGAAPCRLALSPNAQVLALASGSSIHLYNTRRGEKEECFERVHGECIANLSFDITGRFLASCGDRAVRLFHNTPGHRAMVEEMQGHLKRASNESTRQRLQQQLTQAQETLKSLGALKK
Nature of the experiment: affinity purification with mass spectrometry; tandem immunoprecipitation from 293T and MDA-MB-231 cells overexpressing C-terminal Flag-tagged TBL2 or luciferase (control); hits are the intersection of the two cell lines.

Results are given in words; binding and its absence hold for the method and conditions named. In cells and extracts the contact can be indirect. These calls come from enrichment with a bait or labelling near it, and not all partners need be listed. Tags and fused reporters may be left off the sequences shown.

“PRMT5 (protein arginine methyltransferase 5), endogenous (from UniProt O14744 1-637) (enzyme)”: the binding result is “binds”.
As to “WDR77 (methylosome protein 50), endogenous (from UniProt Q9BQA1 1-342)”, the binding result is “binds”.
